The series deals with Arabidopsis Leaf. Put plainly: Western blot analysis of CTP-DMO constructs in transgenic Arabidopsis leaf. The class given is in vivo, Arabidopsis thaliana.

On to “RbcSnoc-CTP: Pea Rubisco small subunit CTP lacking the 27 aa coding sequence, SEQ ID NO:2 (MASMISSSAVTTVSRASRGQSAAMAPFGGLKSMTGFPVRKVNTDITSITSNGGRVKC; listed as Pisum sativum)”, for which the “processing and localization of DMO” value (transformed Arabidopsis, western blot) is recorded as “properly processed DMO localized to the chloroplast”.

B1: RbcS CTP: Pea Rubisco small subunit CTP including the 27 aa coding sequence, SEQ ID NO:1 (protein, listed as Pisum sativum)
chain: MASMISSSAVTTVSRASRGQSAAMAPFGGLKSMTGFPVRKVNTDITSITSNGGRVKCMQVWPPIGKKKFETLSYLPPLTRDSRA
For B1, the “# of Bands” value (Arabidopsis Leaf, immunoreactive DMO bands) is given as “two”.

Values taken from patent publication US8420888B2, “Chloroplast transit peptides for efficient targeting of DMO and uses thereof” (Monsanto Technology LLC, priority 2007, dated 2013).
